Test results taken from PubChem BioAssay AID493014 (National Center for Advancing Translational Sciences (NCATS), 2011).
Out of some 340,000 compounds screened, about 170 (0.05%) were called active. This list was built around the results that the source calls inconclusive (neither active nor inactive); the mix of calls is not that of the screen. Calls follow the shape of the dose curve; as a rule, active = well fitted inhibition curve with a large enough effect in the signal ratio, with a control signal flat (not every such curve was filed as active); inconclusive = small, poorly fitted or top-dose-only effect, or effect the other way, or a change in a side signal; inactive = flat fitted curve, though single readings scatter; the % refers to the signal ratio. Where the call is inconclusive, the potency comes from a doubtful curve fit.

Assay: qHTS Assay to Find Inhibitors of Chronic Active B-Cell Receptor Signaling;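 as to activity change, negative = inhibition: plate controls were basal doxycycline-induced cells for no effect and cells given 10 µM MG132 for full effect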
Conditions: ABC-DLBCL IkBa-CBG/CBR reporter, luminescence ratio (green luciferase fused to IkBa over red control in TMD8 lymphoma cells), 4 h; activity change, negative = inhibition: at 46.1 µM (top of the series)
Procedure, shortened: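 Cell line TMD8 (human ABC DLBCL), stably expressing tet-inducible CBG68-IkBa fusion and CBR; IMDM/0.5% FBS; cpd up to 46 uM; dox induction, 4 h, 37C/5% CO2; dual luminescence; green/red ratio; MG132 control.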
Potency is read from the fitted curve at half-maximal effect.

For CCN1N=C(C)C=C(c2ccccc2)n2c1nc1ccccc12, which activity change, negative = inhibition is on record?
Its activity change, negative = inhibition is inconclusive: 13%.

Which Potency does the source give for O=C(CSC1=NCCN1)NC(c1ccccc1)c1ccccc1 here?
Its Potency is inconclusive: 35.5 µM [falling, partial curve, poor fit].

For COc1ccc(N)cc1C#N, which activity change, negative = inhibition is on record?
The activity change, negative = inhibition was “inactive”.

For Cc1ccc(Nc2nc(N)nc(CSc3nncn3C)n2)cc1, which activity change, negative = inhibition is on record?
Its activity change, negative = inhibition is “inactive”.

For O=C(NCCc1ccccc1)c1ccc2c(c1)N(Cc1ccccc1Cl)C(=O)c1ccccc1S2, which activity change, negative = inhibition is on record?
The activity change, negative = inhibition was inconclusive: 8.62%.

Which activity change, negative = inhibition does the source give for O=C(COC(=O)C1(c2cccc(F)c2)CCCC1)NCc1ccc2c(c1)OCO2 here?
Its activity change, negative = inhibition is inconclusive: -11.2%.

For COc1ccc(C2=CC3=C(Br)C(=O)C(C)(OC(=O)c4ccco4)C(=O)C3=CO2)cc1 (stereo unspecified), which activity change, negative = inhibition is on record?
The activity change, negative = inhibition was inconclusive: 18.6%.

For COc1cc(C2NC(=O)NC(C)=C2C(=O)OC2CCCC(C)C2)cc(Br)c1O (stereo unspecified), which Potency is on record?
Its Potency is inconclusive: 22.4 µM [falling, single point].

Which activity change, negative = inhibition does the source give for COC(=O)CN1C(=O)C2(C(C#N)=C(N)Oc3c2c(C)nn3-c2ccccc2)c2ccccc21 (stereo unspecified) here?
The activity change, negative = inhibition was “inactive”.

For Cc1ccc(C)c(NC(=O)CCN2CCc3ccccc3C2)c1, which Potency is on record?
The Potency was inconclusive: 20 µM [falling, partial curve, poor fit].

For Cc1ccc(C2/C(=C(\O)c3cnn(-c4ccccc4)c3C)C(=O)C(=O)N2CCN(C)C)o1 (stereo unspecified), which Potency is on record?
The Potency was inconclusive: 10 µM [rising, partial curve, poor fit].

With COc1ccc(C(=O)/C=C/c2ccc(N(C)C)cc2)c(OC)c1 as the compound, how does the Potency read?
Its Potency is inconclusive: 20 µM [falling, partial curve, poor fit].

With Clc1nssc1=Nc1nncs1 as the compound, how does the activity change, negative = inhibition read?
The activity change, negative = inhibition was inconclusive: 1.15%.

For Cc1cc(N2C(=O)C3C4C=CC(C4)C3C2=O)ccc1NC(=O)c1cccs1 (stereo unspecified), which activity change, negative = inhibition is on record?
The activity change, negative = inhibition was “inactive”.

For COc1ccccc1C(=O)Nc1nnc(-c2ccc(Cl)cc2)o1, which activity change, negative = inhibition is on record?
Its activity change, negative = inhibition is inconclusive: -57.5%.

With COc1c(OC(C)=O)ccc(/C=C/c2ccc3ccccc3n2)c1[N+](=O)[O-] as the compound, how does the activity change, negative = inhibition read?
The activity change, negative = inhibition was inconclusive: -27%.

Which activity change, negative = inhibition does the source give for c1ccc(-c2c[n+]3c(n2-c2ccccc2)SCC3)cc1 here?
Its activity change, negative = inhibition is inconclusive: 19.1%.

With CC(C)CCC1(CCNC(C)c2cccs2)CCOC(C)(C)C1 (stereo unspecified) as the compound, how does the activity change, negative = inhibition read?
The activity change, negative = inhibition was inconclusive: -0.828%.

Which activity change, negative = inhibition does the source give for O=C(Nc1ccncc1)c1ccc2c(c1)C(=O)N(C1CCCCC1)C2=O here?
The activity change, negative = inhibition was inconclusive: 21.9%.

For CCOCCn1ccc2c(OCC(=O)Nc3ccccc3OC)cccc2c1=O, which Potency is on record?
Its Potency is inconclusive: 2.06 µM [falling, full curve, poor fit].

With CC(C)(C)C(=O)/C=c1\s/c(=C\c2ccc(-c3ccc([N+](=O)[O-])cc3)o2)c(=O)n1CC(=O)NC(N)=O as the compound, how does the activity change, negative = inhibition read?
Its activity change, negative = inhibition is inconclusive: 2.79%.
